Reference: patent US8841346B2 (Massachusetts Institute of Technology, priority 2009, dated 2014)
At least one structure is not confirmed: it was looked up by name or label, or the drawing left a doubt.

Test system: C57/BL6 WT mice
Experiment: Contextual fear conditioning paradigm, memory formation in wild type mice
Assay type: in vivo
Details: HDAC inhibitor injected for 10 days, WT mice (FIG. 26)
Procedure: C57/BL6 WT mice were injected with vehicle or HDAC inhibitor for 10 days.
The total number of mice in each group is indicated in the bottom of each column of FIG. 45A. Mice were subsequently trained with contextual fear conditioning paradigm and tested 24 hours after training. […] After 10 day's dosing, mice were trained with contextual fear conditioning paradigm and tested 24 hours after training.

For `CCC(=O)CCCCC[C@@H]1NC(=O)[C@H]2CCCCN2C(=O)[C@H]([C@@H](C)CC)NC(=O)[C@H](Cc2cn(OC)c3ccccc23)NC1=O` [apicidin], the “memory as measured by % freezing, contextual fear conditioning” value was “did not result in improved cognition”.
